The source of these data is paper doi:10.1101/2023.02.03.526950.

Chains of the proteins cited; added tags and fusions are not shown.
UniProt O43294: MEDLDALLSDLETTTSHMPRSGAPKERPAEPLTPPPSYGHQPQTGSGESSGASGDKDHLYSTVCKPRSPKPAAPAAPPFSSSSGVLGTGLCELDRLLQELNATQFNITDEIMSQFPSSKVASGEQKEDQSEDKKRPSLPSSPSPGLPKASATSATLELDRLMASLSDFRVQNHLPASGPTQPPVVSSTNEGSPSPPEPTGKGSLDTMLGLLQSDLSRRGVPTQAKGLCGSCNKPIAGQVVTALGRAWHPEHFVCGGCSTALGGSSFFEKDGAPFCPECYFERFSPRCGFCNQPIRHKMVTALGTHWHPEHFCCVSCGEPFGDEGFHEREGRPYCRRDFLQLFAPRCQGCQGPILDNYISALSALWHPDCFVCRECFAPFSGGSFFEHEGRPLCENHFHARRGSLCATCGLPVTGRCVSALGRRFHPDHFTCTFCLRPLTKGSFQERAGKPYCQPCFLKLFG

Assay [1] has as its target T1, ULK2, expressed in HEK293T cells (UniProt Q8IYT8).
T1 sequence: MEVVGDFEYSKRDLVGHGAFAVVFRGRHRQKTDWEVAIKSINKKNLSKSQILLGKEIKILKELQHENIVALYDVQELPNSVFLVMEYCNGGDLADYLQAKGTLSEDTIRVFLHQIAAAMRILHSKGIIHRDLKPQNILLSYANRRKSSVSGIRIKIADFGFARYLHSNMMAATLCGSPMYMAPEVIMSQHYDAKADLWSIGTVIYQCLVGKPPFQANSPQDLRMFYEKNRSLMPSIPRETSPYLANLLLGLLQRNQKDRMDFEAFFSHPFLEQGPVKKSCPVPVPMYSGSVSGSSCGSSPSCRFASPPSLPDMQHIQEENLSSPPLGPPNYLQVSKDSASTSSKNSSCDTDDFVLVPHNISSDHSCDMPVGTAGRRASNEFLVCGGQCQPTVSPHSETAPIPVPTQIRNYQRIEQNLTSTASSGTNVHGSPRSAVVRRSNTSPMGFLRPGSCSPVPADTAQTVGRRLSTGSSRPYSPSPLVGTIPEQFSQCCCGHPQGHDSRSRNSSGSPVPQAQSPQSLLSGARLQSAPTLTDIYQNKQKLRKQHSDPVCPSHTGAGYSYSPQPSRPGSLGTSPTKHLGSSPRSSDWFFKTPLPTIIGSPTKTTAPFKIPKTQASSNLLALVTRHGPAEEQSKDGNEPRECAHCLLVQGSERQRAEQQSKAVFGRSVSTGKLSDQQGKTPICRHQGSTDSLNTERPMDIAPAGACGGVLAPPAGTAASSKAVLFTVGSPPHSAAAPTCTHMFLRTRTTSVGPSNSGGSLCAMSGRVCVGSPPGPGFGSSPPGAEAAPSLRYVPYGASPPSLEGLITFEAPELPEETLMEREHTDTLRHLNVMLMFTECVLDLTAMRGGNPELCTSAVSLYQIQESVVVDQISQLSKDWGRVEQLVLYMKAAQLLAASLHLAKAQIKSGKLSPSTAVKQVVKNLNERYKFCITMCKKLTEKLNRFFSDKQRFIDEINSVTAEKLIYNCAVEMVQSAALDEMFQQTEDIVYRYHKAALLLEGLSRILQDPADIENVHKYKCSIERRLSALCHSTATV
The experiment in a line: co-IP.

Assay [2] has as its target T2, ULK1, expressed in HEK293T cells (UniProt O75385).
T2 sequence: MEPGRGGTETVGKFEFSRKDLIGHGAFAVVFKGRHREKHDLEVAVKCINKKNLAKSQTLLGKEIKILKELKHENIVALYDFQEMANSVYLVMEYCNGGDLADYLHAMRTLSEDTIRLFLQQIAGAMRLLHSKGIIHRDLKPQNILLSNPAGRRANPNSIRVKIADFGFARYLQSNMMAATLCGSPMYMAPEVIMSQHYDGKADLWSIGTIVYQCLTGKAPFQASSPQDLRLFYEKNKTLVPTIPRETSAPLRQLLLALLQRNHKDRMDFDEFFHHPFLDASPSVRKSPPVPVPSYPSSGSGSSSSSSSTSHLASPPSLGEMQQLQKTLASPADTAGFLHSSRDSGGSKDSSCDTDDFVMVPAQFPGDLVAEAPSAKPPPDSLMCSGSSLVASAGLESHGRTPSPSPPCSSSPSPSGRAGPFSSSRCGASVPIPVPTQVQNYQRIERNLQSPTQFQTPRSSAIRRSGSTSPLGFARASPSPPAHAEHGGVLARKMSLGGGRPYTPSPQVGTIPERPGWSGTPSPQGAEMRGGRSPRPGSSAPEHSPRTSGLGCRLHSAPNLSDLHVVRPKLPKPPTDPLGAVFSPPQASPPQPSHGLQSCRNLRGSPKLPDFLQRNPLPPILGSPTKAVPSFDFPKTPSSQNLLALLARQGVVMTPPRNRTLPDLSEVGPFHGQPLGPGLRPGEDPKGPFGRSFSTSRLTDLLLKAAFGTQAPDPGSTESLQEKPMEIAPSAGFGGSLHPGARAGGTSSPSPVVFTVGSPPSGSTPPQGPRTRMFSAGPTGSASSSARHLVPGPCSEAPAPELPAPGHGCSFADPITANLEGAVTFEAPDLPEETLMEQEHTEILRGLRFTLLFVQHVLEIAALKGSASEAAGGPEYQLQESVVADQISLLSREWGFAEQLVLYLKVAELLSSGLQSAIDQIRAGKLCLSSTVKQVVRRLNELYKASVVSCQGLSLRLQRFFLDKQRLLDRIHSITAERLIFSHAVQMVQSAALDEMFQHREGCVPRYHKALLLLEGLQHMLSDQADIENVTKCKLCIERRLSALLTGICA
As to the kind of experiment: co-IP.

These are yes or no findings as the source states them, for the method shown. In cells and extracts the contact can be indirect. Some binding calls cover weakened binding; strength is not graded here.

For “HIC5, expressed in HEK293T cells (from UniProt O43294 1-461)”, the binding result in assay [1] and in assay [2] was “binds” throughout.
